# Values of other authors in patent US20060047171A1, “Catalytic hydrogenation of nitriles to produce capsaicinoid derivatives and amine compounds, and methods for purifying and obtaining the polymorphs thereof” (priority 2003, published 2006).
# System: response latency on heated plate
# Details: 5.0 mg/Kg s. c.; mice; cited from earlier work
compound,measurement,value
CN1CC[C@]23c4c5ccc(O)c4O[C@H]2[C@@H](O)C=C[C@H]3[C@H]1C5.Cl [Morphine-HCl],Inhibition (%),49.0%
